PubChem BioAssay AID2551 (National Center for Advancing Translational Sciences (NCATS), 2010)
Hit rate of the full screen: of about 310,000 compounds, about 17,000 (5.5%) were called active. The inconclusive results got no clear call from the source; some entries with a clear call stand among them for comparison. Calls follow the shape of the dose curve; as a rule, active = well fitted inhibition curve with a large enough effect; inconclusive = small, poorly fitted or top-dose-only effect, or effect the other way; inactive = no such curve, though single readings can be large or run the other way. Where the call is inconclusive, the potency comes from a doubtful curve fit.

Protein sequences, listed by entry. Tags and fused reporters are not part of them. Lines headed by an entry give the natural chain unless they say otherwise; changes in a name come on top.
UniProt P51450: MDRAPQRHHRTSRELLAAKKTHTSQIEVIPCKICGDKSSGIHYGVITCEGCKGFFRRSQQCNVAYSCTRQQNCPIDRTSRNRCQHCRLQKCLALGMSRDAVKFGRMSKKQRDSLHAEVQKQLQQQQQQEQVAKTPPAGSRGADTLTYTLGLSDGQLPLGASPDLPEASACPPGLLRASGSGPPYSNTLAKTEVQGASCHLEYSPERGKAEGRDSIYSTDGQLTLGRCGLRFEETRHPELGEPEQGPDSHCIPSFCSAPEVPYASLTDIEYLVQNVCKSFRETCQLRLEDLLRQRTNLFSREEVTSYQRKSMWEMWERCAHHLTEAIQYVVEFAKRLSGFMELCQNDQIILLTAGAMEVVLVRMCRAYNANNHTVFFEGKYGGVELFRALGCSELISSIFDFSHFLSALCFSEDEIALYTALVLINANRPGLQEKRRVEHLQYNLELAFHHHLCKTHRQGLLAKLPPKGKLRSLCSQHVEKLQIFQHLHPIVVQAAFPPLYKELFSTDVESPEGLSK

These compounds were tested against Nuclear receptor ROR-gamma (Mus musculus) (UniProt P51450) (assay: qHTS for inhibitors of ROR gamma transcriptional activity). Settings: Drosophila S2 Gal4-RORgamma UAS-luciferase reporter, 20 h; activity change, negative = inhibition: at 53.6 µM (top of the series).
Summary of the method: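 Stably transfected Drosophila Schneider cells are the test system, with ROR gamma fused to Gal4 and luciferase under UAS control; luminescence is read after 20 hr of 700 uM copper sulfate induction at ambient temperature.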
% is scaled to controls: 0 for no effect and ±100 for the full control effect; potency is read from the fitted curve at half-maximal effect.
Also: nearly all actives have a fitted effect of over 60% in size.

SMILES	Potency	activity change, negative = inhibition
Cc1ccc(Cn2ccc(NC(=O)c3cc(-c4cccc(Cl)c4)on3)n2)cc1	inconclusive: 35.5 µM [inhibitor, single point]	–
Cc1ccc(S(=O)(=O)N2C(=O)c3cccc4cccc2c34)cc1	inactive	–
Cc1c(C=O)c2ccccc2n1CCOc1ccccc1F	inconclusive: 6.31 µM [activator, full curve]	–
Cc1ccc(C(=O)NCCCC(=O)O)o1	inconclusive: 2.24 µM [inhibitor, partial curve]	–
COc1ccc(N2C(=O)CC(Sc3n[nH]c(-c4ccccc4)n3)C2=O)cc1 (stereo not drawn)	active: 11.2 µM	–
Cc1nc(CN(C)C(=O)c2cc(COc3ccc4ncccc4c3)on2)cs1	inconclusive: 15.8 µM [inhibitor, single point]	–
O=C(CSc1nnc(SCc2ccccc2Cl)s1)N/N=C/c1c[nH]c2ccccc12	inconclusive: 15.8 µM [activator, single point]	–
NC(=O)c1ccc(NC(=O)C2CC2)cc1	inactive	–
O=S(=O)(c1ccc(-c2csc(-c3cccnc3)n2)cc1)N1CCCCC1	inconclusive: 12.6 µM [activator, partial curve]	–
CN(C)CCCN(C(=O)c1ccc(S(=O)(=O)N2CCCCCC2)cc1)c1nc2ccc(F)cc2s1	inactive	–
CCOC(=O)c1c(C)[nH]c(C)c1C(=O)COC(=O)c1cc2ccccc2cc1OC	inconclusive: 14.1 µM [activator, single point]	–
COc1cc(/C=C/C(=O)Nc2ccc3nc4n(c(=O)c3c2)CCCC4)cc(OC)c1OC	inactive	–
CC(C)(C)c1ccc(-c2nnc3sc(-c4ccncc4)nn23)cc1	–	inactive: -13.5% [at 0.365 µM]
Cc1ccc(/C=C/C(=O)NCc2ccc(S(N)(=O)=O)cc2)o1	inactive	–
Oc1ccc(-c2n[nH]c(=S)n2-c2ccc3c(c2)OCCO3)c(O)c1	inconclusive: 31.6 µM [inhibitor, single point]	–
O=C(CCCN1C(=O)/C(=C/c2cccs2)SC1=S)Nc1ccc(O)cc1	inconclusive: 2.51 µM [inhibitor, partial curve]	–
CSC1=N/C(=C\c2ccccc2F)C(=O)S1	inactive	–
Cc1[nH][nH]c(=O)c1C(c1c(C)[nH][nH]c1=O)c1cn(Cc2ccc(F)cc2)c2ccccc12	inconclusive: 10 µM [activator, single point]	–
CN(C/C=C/C#CC(C)(C)C)Cc1cccc2ccccc12	inconclusive: 14.1 µM [activator, single point]	–
Cc1cc(N/N=C/c2ccc(F)cc2)nc(-n2nc(C)cc2C)n1	active: 0.0794 µM	–
FC1(F)C(F)(F)C(F)(F)C2(F)C(F)(F)C(F)(F)C(F)(F)C(F)(F)C2(F)C1(F)F (stereo not drawn)	inactive	–
COc1ccccc1NC(=S)N1CCN(c2nc(-c3ccccc3)cs2)CC1	active: 14.1 µM	–
O=C(CN1CCN(S(=O)(=O)N2CCCCC2)CC1)Nc1ccc(Cl)c(Cl)c1	inconclusive: 17.8 µM [activator, partial curve]	–
Cc1ccc(CSc2nc3ccccc3c(=O)n2C)cc1	inconclusive: 17.8 µM [activator, single point]	–

SMILES	Potency	activity change, negative = inhibition
CC(NS(=O)(=O)c1ccccc1)c1n[nH]c(=S)n1-c1ccccc1 (stereo not drawn)	inactive	–
CC(=O)N(Cc1c(C)nn(-c2ccccc2)c1Cl)c1ccc(Cl)cc1	inactive	–
COc1cc(NC(=O)CCn2c(=O)[nH]c3ccsc3c2=O)cc(OC)c1	inconclusive: 6.31 µM [activator, full curve]	–
Cc1nn(-c2ccccc2)c(-c2ccccc2[N+](=O)[O-])c1C(=O)O	inactive	–
O=CN/C=C/c1cc(O)ccc1O	active: 11.2 µM	–
CC(=O)N1CCN(c2ccc(NCc3ccc(C(C)C)cc3)cc2)CC1	inconclusive: 5.62 µM [activator, single point]	–
O=C(/C=C/c1ccccc1[N+](=O)[O-])c1ccccc1Br	inconclusive: 35.5 µM [inhibitor, single point]	–
CC(C)COn1c(=S)[nH]c2ccccc2c1=O	active: 2.24 µM	–
Cc1nc2sccn2c(=O)c1S(=O)(=O)Nc1ccc(N2CCOCC2)c(Cl)c1	inconclusive: 17.8 µM [activator, partial curve, poor fit]	–
COc1ccc2cc(C(c3nnnn3C(C)(C)C)N3CCc4ccccc4C3)c(=O)[nH]c2c1 (stereo not drawn)	inconclusive: 35.5 µM [inhibitor, single point]	–
COc1cc2[nH]c(=S)nc(NCCC(C)C)c2cc1OC	active: 4.47 µM	–
COc1ccc(C(=O)NCCn2cc(SCC(=O)NCC3CCCO3)c3ccccc32)cc1OC (stereo not drawn)	inactive	–
CCC(C)(C)C1CCC(=NNC(=S)Nc2ccccc2)CC1 (stereo not drawn)	active: 11.2 µM	–
COc1ccc2nc3oc(C(=O)NC4CCN(Cc5ccccc5)CC4)cc3cc2c1	inconclusive: 11.2 µM [activator, single point]	–
CCOC(=O)C1=C(c2ccccc2)NC(SC)=C(C#N)C1c1ccco1 (stereo not drawn)	inconclusive: 25.1 µM [activator, single point]	–
Cc1ccc(NC(=S)N2CCN(S(=O)(=O)c3c(F)cccc3F)CC2)cc1C	inconclusive: 35.5 µM [inhibitor, single point]	–
CC(C)(C)NC(=O)COC(=O)c1ccc(O)cc1	inconclusive: 31.6 µM [activator, single point]	–
CCCNC(=O)NC1CCCc2ccccc21 (stereo not drawn)	inactive	–
O=C(/C=N/NC(=O)c1ccc(Cl)cc1Cl)c1ccccc1	inconclusive: 11.2 µM [inhibitor, partial curve, poor fit]	–
CN(C)/C=C1\C=C(c2ccccc2)OC1=O	inconclusive: 6.31 µM [inhibitor, full curve, poor fit]	–
COc1ccc(Nc2oc(-c3ccco3)nc2S(=O)(=O)c2ccc(F)cc2)cc1	inconclusive: 11.2 µM [activator, partial curve]	–
COc1ccc(C2CC(=O)N(CC(=O)NCC3CCCO3)c3ccccc3S2)cc1OC (stereo not drawn)	inactive	–
CCCNC(=O)C(=O)NCCC1=CCCCC1	inactive	–
COc1ccccc1N1CCN(C(=O)c2cccc3c(=O)c(C)c(-c4ccccc4)oc23)CC1	inconclusive: 5.62 µM [activator, full curve, poor fit]	–

In another format: 14 of the compounds above
SMILES | Potency | activity change, negative = inhibition
CC(NS(=O)(=O)c1ccccc1)c1n[nH]c(=S)n1-c1ccccc1 (stereo not drawn) | inactive | –
CC(=O)N(Cc1c(C)nn(-c2ccccc2)c1Cl)c1ccc(Cl)cc1 | inactive | –
COc1cc(NC(=O)CCn2c(=O)[nH]c3ccsc3c2=O)cc(OC)c1 | inconclusive: 6.31 µM [activator, full curve] | –
Cc1nn(-c2ccccc2)c(-c2ccccc2[N+](=O)[O-])c1C(=O)O | inactive | –
O=CN/C=C/c1cc(O)ccc1O | active: 11.2 µM | –
CC(=O)N1CCN(c2ccc(NCc3ccc(C(C)C)cc3)cc2)CC1 | inconclusive: 5.62 µM [activator, single point] | –
O=C(/C=C/c1ccccc1[N+](=O)[O-])c1ccccc1Br | inconclusive: 35.5 µM [inhibitor, single point] | –
CC(C)COn1c(=S)[nH]c2ccccc2c1=O | active: 2.24 µM | –
Cc1nc2sccn2c(=O)c1S(=O)(=O)Nc1ccc(N2CCOCC2)c(Cl)c1 | inconclusive: 17.8 µM [activator, partial curve, poor fit] | –
COc1ccc2cc(C(c3nnnn3C(C)(C)C)N3CCc4ccccc4C3)c(=O)[nH]c2c1 (stereo not drawn) | inconclusive: 35.5 µM [inhibitor, single point] | –
COc1cc2[nH]c(=S)nc(NCCC(C)C)c2cc1OC | active: 4.47 µM | –
COc1ccc(C(=O)NCCn2cc(SCC(=O)NCC3CCCO3)c3ccccc32)cc1OC (stereo not drawn) | inactive | –
CCC(C)(C)C1CCC(=NNC(=S)Nc2ccccc2)CC1 (stereo not drawn) | active: 11.2 µM | –
COc1ccc2nc3oc(C(=O)NC4CCN(Cc5ccccc5)CC4)cc3cc2c1 | inconclusive: 11.2 µM [activator, single point] | –
